Reference: patent US10918624B2, “Anti-cancer azole compounds” (Imam Abdulrahman Bin Faisal University, priority 2019, dated 2021)
Some results were stated once for a whole list of compounds, not compound by compound. At least one structure is not confirmed: it was looked up by name or label, or the drawing left a doubt.

Experiment: Thermogravimetric analyses (TGA)
Type: physicochemical
Details: 25° C. to 700° C., 10° C. min, nitrogen
Method: TGA were carried on Perkin-Elmer, simultaneous thermal analyzer (STA6000, PerkinElmer, Ohio, USA). TGA data of azole-BG samples were obtained at temperature in the range of 25° C. to 700° C. at the rate of 10° C. min under inert nitrogen flowing at a rate of 20 mL/min.

OC(COCCCCOCC(O)Cn1cncn1)Cn1cncn1 (stereo not shown) [BG-(Tri)2]
temperature of weight loss / degradation by TGA: Above 250 °C
